Results are given in words; binding and its absence hold for the method and conditions named. In cells and extracts the contact can be indirect. These calls come from enrichment with a bait or labelling near it, and not all partners need be listed. Sequences can lack the tags named with a protein.

Chains of the proteins cited; added tags and fusions are not shown.
UniProt P19474: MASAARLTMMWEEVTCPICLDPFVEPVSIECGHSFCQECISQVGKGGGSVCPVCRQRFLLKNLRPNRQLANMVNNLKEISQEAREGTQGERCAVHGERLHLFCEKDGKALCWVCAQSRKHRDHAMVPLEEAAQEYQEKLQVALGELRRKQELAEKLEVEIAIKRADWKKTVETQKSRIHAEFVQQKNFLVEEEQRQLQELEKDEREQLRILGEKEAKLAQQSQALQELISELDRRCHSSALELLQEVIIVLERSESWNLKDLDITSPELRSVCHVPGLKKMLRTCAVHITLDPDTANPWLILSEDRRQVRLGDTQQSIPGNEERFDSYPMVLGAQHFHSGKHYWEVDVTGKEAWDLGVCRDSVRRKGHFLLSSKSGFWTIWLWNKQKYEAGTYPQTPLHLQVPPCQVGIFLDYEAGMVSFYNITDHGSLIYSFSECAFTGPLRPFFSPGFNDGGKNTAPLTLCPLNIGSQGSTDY

The experiment deals with T1, FLAG-SET7/9 (UniProt Q8WTS6).
T1 sequence: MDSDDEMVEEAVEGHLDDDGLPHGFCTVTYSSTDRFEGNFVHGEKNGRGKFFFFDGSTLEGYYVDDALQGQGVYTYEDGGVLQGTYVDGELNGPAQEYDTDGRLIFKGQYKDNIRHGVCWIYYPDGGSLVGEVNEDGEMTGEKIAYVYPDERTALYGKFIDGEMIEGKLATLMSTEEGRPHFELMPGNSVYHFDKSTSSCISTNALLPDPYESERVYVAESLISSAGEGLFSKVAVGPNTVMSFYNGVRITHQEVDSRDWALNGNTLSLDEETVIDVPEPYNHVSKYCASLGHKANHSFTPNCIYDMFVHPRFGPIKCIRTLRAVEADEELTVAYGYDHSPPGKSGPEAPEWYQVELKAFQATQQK
In words: affinity purification with mass spectrometry; extracts of MCF-7 cells stably expressing FLAG-SET7/9 on an anti-FLAG M2 affinity column, eluted with FLAG peptide (0.2 mg/ml), SDS-PAGE, silver staining, bands cut out for LC-MS/MS.

For “Tripartite motif-containing protein 21 (TRIM21), endogenous (from UniProt P19474 1-475) (enzyme)”, the binding entry is on record as “binds”.
